# Measurements published in patent publication US8367328B2, “Method for synthesizing DNA” (Takara Bio Inc., priority 1998, dated 2013).
# Experiments:
# Pyrobest DNA Polymerase = test: PCR with Pyrobest DNA Polymerase in the presence of cationic complexes; assay type: biochemical, Pyrococcus sp.
# ExTaq DNA Polymerase = test: PCR with ExTaq DNA Polymerase in the presence of cationic complexes; assay type: biochemical
# Excerpt: Using hexaamminecobalt (III) chloride ([Co(NH3)6]Cl3) (manufactured by Sigma), tris(ethylenediamine)cobalt (III) chloride ([Co(C2H8N2)3]Cl3) (manufactured by Aldrich), or tris(ethylenediamine)rhodium (III) trichloride•trihydrate ([Rh(C2H8N2)3]Cl3.3H2O) (manufactured by Aldrich), the effects on the amplification reaction by various kinds of DNA polymerases were examined. As the DNA polymerases, TaKaRa Taq DNA Polymerase (hereinafter referred to as “Taq DNA Polymerase” manufactured by Takara Shuzo Co., Ltd.), Pyrobest DNA Polymerase (manufactured by Takara Shuzo Co., Ltd.) and Ex Taq DNA Polymerase (manufactured by Takara Shuzo Co., Ltd.) were used.
# A reaction mixture comprising Escherichia coli JM109 genomic DNA as a template, primers Eco1 and Eco2 as a primer pair, and DNA polymerase was prepared, and PCR was carried out. The compositions of the reaction mixture for each enzyme are as follows.
# a reaction mixture comprising 5 μl of 10-fold concentrated buffer for TaKaRa ExTaq DNA Polymerase (manufactured by Takara Shuzo Co., Ltd.), 0.2 mM each of dATP, dCTP, dGTP and dTTP, 100 pg of Escherichia coli JM109 genomic DNA, 1.25 U of TaKaRa EX-Taq DNA Polymerase, and 10 pmol each of primers Eco1 and Eco2 (a final volume being 50 μl). […]
smiles,measurement,setting,value
"N.N.N.N.N.N.[Cl-].[Cl-].[Cl-].[Co+3] [[Co(NH3)6]Cl3, hexaamminecobalt (III) chloride]",Reaction time period as fraction of that of no addition,Pyrobest DNA Polymerase; 100 μM,about ⅗
same,Time Period Required (for same amount of amplified product),"Pyrobest DNA Polymerase; 100 μM complex added, 98°C 5 s–68°C 60 s, 30 cycles (no addition: 120 s, 31 cycles, 4911 s)",2953 s
same,Reaction time period as fraction of that of no addition,ExTaq DNA Polymerase; 50 μM,about ⅘
same,Time Period Required (for same amount of amplified product),"ExTaq DNA Polymerase; 50 μM complex added, 98°C 5 s–68°C 40 s, 30 cycles (no addition: 60 s, 30 cycles, 2953 s)",2294 s
